Here are results for 27 molecules from paper PMC9744329.

By UniProt entry, the sequences of proteins in these tests, tags left out.
UniProt Q00659: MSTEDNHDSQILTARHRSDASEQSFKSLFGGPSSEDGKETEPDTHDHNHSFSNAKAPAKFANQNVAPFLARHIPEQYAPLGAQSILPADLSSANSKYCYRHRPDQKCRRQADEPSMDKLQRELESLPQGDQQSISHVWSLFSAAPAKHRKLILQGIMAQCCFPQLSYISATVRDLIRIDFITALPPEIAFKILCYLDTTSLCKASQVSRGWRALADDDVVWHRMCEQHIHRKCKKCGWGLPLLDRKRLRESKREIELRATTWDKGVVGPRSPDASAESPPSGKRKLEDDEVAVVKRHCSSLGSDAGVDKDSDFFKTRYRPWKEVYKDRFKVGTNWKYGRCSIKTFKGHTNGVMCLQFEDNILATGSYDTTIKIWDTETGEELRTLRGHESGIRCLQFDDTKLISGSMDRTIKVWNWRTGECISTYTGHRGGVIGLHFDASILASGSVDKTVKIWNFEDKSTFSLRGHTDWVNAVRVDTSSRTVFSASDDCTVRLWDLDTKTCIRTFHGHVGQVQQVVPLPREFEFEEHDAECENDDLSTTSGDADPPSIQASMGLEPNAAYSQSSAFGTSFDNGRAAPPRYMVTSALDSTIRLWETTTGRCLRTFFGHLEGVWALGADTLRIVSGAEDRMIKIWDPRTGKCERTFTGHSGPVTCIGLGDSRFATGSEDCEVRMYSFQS

These are yes or no findings as the source states them, for the method shown. In cells and extracts the contact can be indirect. Here binding means that the protein was enriched with, or labelled near, the bait; the list need not be complete. For part of these data: No binding means not detected with the bait. For part of these data: Where a sequence is shown, tags or fusion partners need not be part of it.

The target in experiment [1] is T1, SkpA-GFP (Aspergillus nidulans) (UniProt Q5BAX8).
T1 sequence: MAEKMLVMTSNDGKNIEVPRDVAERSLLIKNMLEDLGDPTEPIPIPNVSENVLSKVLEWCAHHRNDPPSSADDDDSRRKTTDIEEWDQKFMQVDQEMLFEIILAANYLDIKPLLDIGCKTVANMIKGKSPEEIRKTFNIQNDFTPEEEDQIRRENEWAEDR
Put plainly: affinity purification with mass spectrometry; GFP trap of SkpA-GFP (native locus) from A. nidulans: vegetative growth 24h, asexual development in light 24h, sexual development in the dark, osmotic stress (0.5 M NaCl), oxidative stress (5 mM H2O2, 80 μM Menadione); LC-MS; filtered against the free GFP control; at least two biological replicates.

Experiment [2] has as its target T1, SkpA-GFP (Aspergillus nidulans). Put plainly: condition: only stress conditions (5 mM H2O2, 80 μM Menadione, 0.5 M NaCl); affinity purification with mass spectrometry; GFP trap of SkpA-GFP from A. nidulans under the stress conditions only (5 mM H2O2, 80 μM Menadione, 0.5 M NaCl); LC-MS.
The target in experiment [3] is Fbx47-GFP (Aspergillus nidulans). Put plainly: affinity purification with mass spectrometry; GFP trap (GFP-TRAP sepharose or magnetic particles, Chromotek) of Fbx-GFP fusions and their F-box deleted forms from A. nidulans vegetative cultures at 30°C for 24h, for Fbx15/23/25/27 also under osmotic (NaCl) and oxidative (H2O2) stress; LC-MS; two biological replicates.
Experiment [4] addresses Fbx15-GFP (Aspergillus nidulans). The description is as above.
For experiment [5], the target named is Fbx27-GFP (Aspergillus nidulans). The description is as above.
For experiment [6], the target named is CulA-GFP (Aspergillus nidulans). The experiment can be described thus: affinity purification with mass spectrometry; GFP trap of CulA-GFP from A. nidulans, vegetative growth; LC-MS; filtered against the free GFP control.
For experiment [7], the target named is Fbx25-GFP (Aspergillus nidulans) (UniProt Q00659). The experiment can be described thus: affinity purification with mass spectrometry; GFP trap (GFP-TRAP sepharose or magnetic particles, Chromotek) of Fbx-GFP fusions and their F-box deleted forms from A. nidulans vegetative cultures at 30°C for 24h, for Fbx15/23/25/27 also under osmotic (NaCl) and oxidative (H2O2) stress; LC-MS; two biological replicates.

The target in experiment [8] is FΔFbx27-GFP (Aspergillus nidulans). The experiment can be described thus: affinity purification with mass spectrometry.
In experiment [9] the target is FΔFbx15-GFP (Aspergillus nidulans). The experiment can be described thus: affinity purification with mass spectrometry.

As to CulA, the binding result in experiment [1] is given as “binds”. On the same count and under the same terms, the same measure for Fbx1: “binds”; for Fbx3: “no binding”. Same read-out and setting: the same measure for Fbx10: “binds”; for Fbx11: “binds”. On to Fbx15, for which the binding result in [1] is given as “binds”. Same read-out and setting: the value for Fbx18 was “binds”; that for Fbx19 was “binds”. With Fbx23, in experiment [1], the binding entry is given as “binds”. Same read-out and setting: the same measure for Fbx25/SconB (from UniProt Q00659 1-678): “binds”; for Fbx27: “binds”.

For the molecule Fbx36, the binding entry in experiment [2] is “no binding”; in experiment [1] it was “binds”. For Fbx38, the binding entry in experiment [1] is given as “no binding”. Take Fbx50/GrrA: the binding result in experiment [1] is reported as “binds”. In the case of Fbx51, in experiment [1], the binding result is recorded as “binds”. Still for that read-out and setting: the value for Fbx52 was “no binding”. On the same count and under the same terms, the value for Fbx57 was “no binding”.

With Fbx72, the binding result in experiment [1] is listed as “binds”. Same read-out and setting: the same measure for Fbx74: “binds”.

B1: HogA (enzyme, UniProt Q9P419 1-379)
chain: MAEFVRAQIFGTTFEITSRYTDLQPVGMGAFGLVCSARDQLTAQPVAVKKIMKPFSTPVLSKRTYRELKLLKHLRHENIISLSDIFISPLEDIYFVTELLGTDLHRLISSRPLEKQFIQYFLYQIMRGLKYVHSAGVVHRDLKPSNILINENCDLKICDFGLARIQDPQMTGYVSTRYYRAPEIMLTWQKYDAKVDVWSAACIFAEMLLGAPLFPGKDHVNQFSIITELLGTPPDDVIQTICSENTLRFVKSLPKREPQDLAKLPKFLALVHPDKKPEEDEDYKNTINLLKAMLVYNPKDRISAEAALAAPYLAPYHDETDEPVAEEKFDWSFNDADLPVDTWKIMMYSEILDFHNIDQGGDINPALVEGAGLNQQGFQ
As to B1, the binding entry in [3] is “binds”.

B2: StcT (protein, UniProt Q00717 1-215)
chain: MPFGTLYTRPFNPRSLAILAIAKANNLPLKIKTITSFKDATEEYLQLNPLGKIPTFVGADGYVLTESIAIALYDSNTTLLGTTGQEYASIIRWMAFGITEILPALGGWFNPLIGRANFNADNIYQSKDDTLARLKILDNHLCGREYLVGETLSLADLFVLGIVQGAFRFFLDKRWRDEHRNLSTWFERVHALPIVVDVAGPPVLAEYEMPIQPPK
Take B2: in experiment [4], the binding entry is given as “binds”.

B3: serine/threonine kinase Atg1 (enzyme, UniProt Q5BCU8 1-935)
chain: MASTPSKSSRSSKEAYSEVAIGPYTRLDHIGKGSFATVYRGVQTKSRTFVAIKSVNLGKLNRKLKDNLAMEIDILKYLLHPHIVALLDCLETNSHIHLIMEYCALGDLSQFIKRRDSLKDHSYTRHMISKYPNVSGGALNEVIVRHFLKQLASALRFLRDKNLIHRDIKPQNLLLCPAPKPAPTQSEAEPQIVPLKGSETSFTPAVGLETLPLLKLADFGFARSLPATSLAETLCGSPLYMAPEILRYEKYDAKADLWSVGTVLYEMVVGKPPFRATNHVELLRKIETARDRIKFPEENPASDDIKALVRGLLKFNPVVRMTFADFFENDIITGPIPGLAAEDVPIPDRPPSPEVIPTESAEPQSVSDTIYPRNNDAEPKEDRYPPPHRYVPHNDRPQTPTSSSPMRRTRSGDRPSSAKQIPPAAAPPRPEAVSHATAPGRQELIGRHSSEQQAPGTVPVYKNVDKLKEERELAAQEVAFERDYVVVEKRAVEVNAFADQLAYDPRFHGKQTGALPRRQTTPALPTTQASSQNSPRKAVQVVSGRSRADSAHNRHASYERRYGQSPTSATSAISKALNMASGRLFGVGFSPPLNIAKGGRSPPLAYNPFPAYPTGHAGLLTMGDGARAQASPDEDTRTVKELEECATRSDVVYGFAEVKYKQLIPLAPSSQSYNSPNAPGTNFEEGELTPDAAVTLSEEALVLYVKALSLLAKSMDIAGAWWMRKNRAEALGESSFSRLEPVSIRINKVVQWVRSRFNEVLEKAEFVRLKLLEAQRRLPTDHPSHPNNLSLESAGSGTSVDVMVSPGVTAEKLMYDRALEMSRAAAINELTSEDLPGCEIAYVTAIRMLEAVLETDEVQPSGKGTDKVTLDGVQGEEREVLLKLVSKIRMRLATLRQKLAVLAKRQTPPSSGKMIPSNLAHATPATPATGMATPR
For the molecule B3, the binding entry in experiment [5] was “binds”.

B4: NudC (protein, UniProt P17624 1-198)
chain: MSEQEPSSADLAAREAEEKQRKAAEEAEQATLPYKWTQTIRDVDVTIPVSANLKGRDLDVVLKKDSIKVKVKGENGEVFIDGQFPHPIKPSESSWTLETTSKPPGKEVSIHLDKVNQMEWWAHVVTTAPKIDVSKITPENSSLSDLDGETRAMVEKMMYDQRQKEMGAPTSDEQRKMDILKKFQKEHPEMDFSNAKIG
Regarding B4, the binding entry in experiment [4] is “binds”.

B5: kinase subunit PkaR (protein, UniProt O59922 1-412)
chain: MSNYSHSSNNPFLKVSTKEDKPSSFHKIAEDEEYEVTSPTDATFRASKNADNSAGGNNPLESGRAGESGDGIRFGRDPFGNFQGGAEGQDESSIDPNGFRPTGGPDHGFPNNYALGRRTSVSAESLNPTSAGSDSWTPPSHPKSEEQLARLKTAVSNNFLFSHLDDEQSRTVLDALVEKPIPAKDIKVISQGDAGDYFYIVEEGHFDVYINPSGSVQPGPDGAGTKISTIGPGGSFGELALMYNAPRAATIVSTEPKSTLWALDRITFRRILMDSAFQRRRMYEAFLEEVPLLSSLKPYERAKIADALDTIKFPAGEYIIKEGDPGDAFYLLESGEAEAFMEGVEEPVKSYKRGDYFGELALLDDKPRAASVRAKTEVKVAKLGRDGFKRLLGPVENIMRRTEYSSRPSTAT
On to B5, for which, in experiment [5], the binding entry was “binds”.

B6: TF SteA (yeast Ste12) (protein, UniProt O74252 1-692)
chain: MYSQHGAPMAPPQKPETFMLSNEAQQSLPHDAQVALQQVDNLKYFLLSAPVDWQPDQLIRRFLLPTGDYISCVLWSNLFHISGTDIVRCLAFRFQAFGRPVKNSKKFEEGIFSDLRNLKAGTDATLEEPKSPFLDFLYKNNCIRTQKKQKVFYWYSVPHDRLFLDALERDLKREKMGQEATTVAVSEPALSFEFDSSQSLYEQLTKAQQANSSSFAAHASTTYGQSASPVVRTVDAMPPPQMAPQMAPPSIPLLTDESANSQMYTSIPMPNPIPQNLIKREADYGAIQYDRNGMPIARIHQRHSSMPTFVEYSPAPSFVSSQYEDYSNRGLSFEPVTPPQHSSHIGPEPAYIANEDTGLYTAIPEMSTGSGFNPMMHLPPSNLASAHFPTPARTFHSNVYSVLEGSPTYKQRRRRSSIPPGAANPVTTGTHSPAPALSYAAHKPSDLRRSVSSSVAPGDTDDSRHESLHRSVNSTYTATLPQKNLMHEMSRNGTPLSSVGEHREQSSIPLTQAEDLPALPANGTVESGAPNGVGHKSDRYATGPVRRARSATMMELGPYPQKSHSCPIPSCGRLFKRLEHLKRHVRTHTQERPYPCPYCNKAFSRSDNLAQHRRIHEAQQDGQPLVHEDDLENDDNESVSHDEDESPSESVHPAVPGVHGMTSMPSSVALQSTMGSMMGSHMIAPQLLQQQI
As for B6, the binding entry in experiment [4] is reported as “binds”.

B7: StcW (enzyme, UniProt Q00730 1-601)
chain: MTVHYVHEGPEPQESRYSIPQHTTWMDPNNRRLRVITIGAGFSGILMAYQIQKQCANIEHVVYEKNHDIGGTWLTNRYPNAGCDVPSHAYTYRFALYPDWPRYFSYASDIWEYLDKVCAAFKLRQYMQFRTEVIKACWNEEEGQWKVRLRRQRPGQEPEEFDDHCHILLNACGVLSNPKWPDTPGLHDRFKGRVIHTAAWPDDYGEVQWNSDRVAVIGSGASSIQAVAGIQPHVGHLDIFVRTGVWFGVLAGNTGAPTKIYSEAERAQFRSNPSALVEHTKSIEAEVNGMWGAFYRDSMAQKGASAFFRQRMASIIKDDRLAKGFTPTFGFGCRRITPGDPYMHAIQQANVDVHFTAVASCTEDGIVGADGIERLVDTIVCASGFDNTYRPQFPIIGRRGVDLRDKWKTNPEAYLGLAVPDMPNYITFIGPSWPIQNGSVMAPLHSVSEYAIQFLKKMQNENIRAWAPRQQITDRFNEHVQEWVKHTVWSDQCRSWYKNNETGRVNAIWPGSSLHYQAVIERPRYEDFEISYADANPWAHLGMGWTMLDRAGGKQADVSPHLCLENIDPVWFKSIGGDVDILRKQLEKGHTLPNNASHAEA
In the case of B7, the binding result in [4] was “binds”.

B8: SkpA (protein, UniProt Q5BAX8 1-161)
chain: MAEKMLVMTSNDGKNIEVPRDVAERSLLIKNMLEDLGDPTEPIPIPNVSENVLSKVLEWCAHHRNDPPSSADDDDSRRKTTDIEEWDQKFMQVDQEMLFEIILAANYLDIKPLLDIGCKTVANMIKGKSPEEIRKTFNIQNDFTPEEEDQIRRENEWAEDR
As to B8, the binding entry in [6], in [4], in [5], in experiment [7], in experiment [8] and in experiment [9] was “binds” in each case.
